Experimental data taken from the supplement of paper PMC10382679.
Single values of this set are uncertain.

B1: Rpb7; numbered along this chain (parent)
chain: MFFIKDLSLNITLHPSFFGPRMKQYLKTKLLEEVEGSCTGKFGYILCVLDYDNIDIQRGRILPTDGSAEFNVKYRAVVFKPFKGEVVDGTVVSCSQHGFEVQVGPMKVFVTKHLMPQDLTFNAGSNPPSYQSSEDVITIKSRIRVKIEGCISQVSSIHAIGSIKEDYLGAI

Assays:
[1] = variants of: B1; test: log2 fold change of mutant abundance, UV-irradiated vs unirradiated; higher = more UV resistant (enriched after UV); settings: with Saccharomyces cerevisiae rad7Δ rad26Δ; UV dose (J/m2): 10; genetic background: rad7Δ rad26Δ rpb7Δ + plasmid RPB7 library; outgrowth: 10 cell divisions
Method: (§1)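 Error-prone PCR random mutant library of yeast RPB7 (codons 2-171) on a LEU2 plasmid, shuffled into rad7Δ rad26Δ S. cerevisiae (BJ5465 background) with genomic RPB7 deleted. Cells were irradiated with 10 J/m2 UV (254 nm) or left unirradiated and grown for 10 divisions. Plasmid RPB7 amplicons were Illumina-sequenced and per-codon amino-acid counts were compared UV vs no UV with NOISeq (3 repeats, ARSyNseq batch correction). Positive log2FC means enrichment after UV, i.e. UV resistance / derepressed TCR.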

[2] = variants of: B1; test: NOISeq theta enrichment statistic, UV-irradiated vs unirradiated (dimensionless); higher = more UV resistant (enriched after UV); settings: with Saccharomyces cerevisiae rad7Δ rad26Δ; UV dose (J/m2): 10; genetic background: rad7Δ rad26Δ rpb7Δ + plasmid RPB7 library; outgrowth: 10 cell divisions
Method: as §1

Variant | log2 fold change of mutant abundance [1] | NOISeq theta enrichment statistic [2]
MFFIKDLSLNITLHPSFFGPRMKQYLKTYLLEEVEGSCTGKFGYILCVLDYDNIDIQRGRILPTDGSAEFNVKYRAVVFKPFKGEVVDGTVVSCSQHGFEVQVGPMKVFVTKHLMPQDLTFNAGSNPPSYQSSEDVITIKSRIRVKIEGCISQVSSIHAIGSIKEDYLGAI [K29Y] | -0.0818 | -0.0615
MFFIKDLSLNITLHPSFFGPRMKQYLKTKFLEEVEGSCTGKFGYILCVLDYDNIDIQRGRILPTDGSAEFNVKYRAVVFKPFKGEVVDGTVVSCSQHGFEVQVGPMKVFVTKHLMPQDLTFNAGSNPPSYQSSEDVITIKSRIRVKIEGCISQVSSIHAIGSIKEDYLGAI [L30F] | -0.00583 | -0.00479
MFFIKDLSLNITLHPSFFGPRMKQYLKTKHLEEVEGSCTGKFGYILCVLDYDNIDIQRGRILPTDGSAEFNVKYRAVVFKPFKGEVVDGTVVSCSQHGFEVQVGPMKVFVTKHLMPQDLTFNAGSNPPSYQSSEDVITIKSRIRVKIEGCISQVSSIHAIGSIKEDYLGAI [L30H] | -0.215 | -0.161
MFFIKDLSLNITLHPSFFGPRMKQYLKTKILEEVEGSCTGKFGYILCVLDYDNIDIQRGRILPTDGSAEFNVKYRAVVFKPFKGEVVDGTVVSCSQHGFEVQVGPMKVFVTKHLMPQDLTFNAGSNPPSYQSSEDVITIKSRIRVKIEGCISQVSSIHAIGSIKEDYLGAI [L30I] | 0.143 | 0.278
MFFIKDLSLNITLHPSFFGPRMKQYLKTKPLEEVEGSCTGKFGYILCVLDYDNIDIQRGRILPTDGSAEFNVKYRAVVFKPFKGEVVDGTVVSCSQHGFEVQVGPMKVFVTKHLMPQDLTFNAGSNPPSYQSSEDVITIKSRIRVKIEGCISQVSSIHAIGSIKEDYLGAI [L30P] | 0.034 | 0.0475
MFFIKDLSLNITLHPSFFGPRMKQYLKTKQLEEVEGSCTGKFGYILCVLDYDNIDIQRGRILPTDGSAEFNVKYRAVVFKPFKGEVVDGTVVSCSQHGFEVQVGPMKVFVTKHLMPQDLTFNAGSNPPSYQSSEDVITIKSRIRVKIEGCISQVSSIHAIGSIKEDYLGAI [L30Q] | 0.179 | 0.251
MFFIKDLSLNITLHPSFFGPRMKQYLKTKRLEEVEGSCTGKFGYILCVLDYDNIDIQRGRILPTDGSAEFNVKYRAVVFKPFKGEVVDGTVVSCSQHGFEVQVGPMKVFVTKHLMPQDLTFNAGSNPPSYQSSEDVITIKSRIRVKIEGCISQVSSIHAIGSIKEDYLGAI [L30R] | -0.152 | -0.137
MFFIKDLSLNITLHPSFFGPRMKQYLKTKTLEEVEGSCTGKFGYILCVLDYDNIDIQRGRILPTDGSAEFNVKYRAVVFKPFKGEVVDGTVVSCSQHGFEVQVGPMKVFVTKHLMPQDLTFNAGSNPPSYQSSEDVITIKSRIRVKIEGCISQVSSIHAIGSIKEDYLGAI [L30T] | -0.131 | -0.0676
MFFIKDLSLNITLHPSFFGPRMKQYLKTKVLEEVEGSCTGKFGYILCVLDYDNIDIQRGRILPTDGSAEFNVKYRAVVFKPFKGEVVDGTVVSCSQHGFEVQVGPMKVFVTKHLMPQDLTFNAGSNPPSYQSSEDVITIKSRIRVKIEGCISQVSSIHAIGSIKEDYLGAI [L30V] | 0.202 | 0.24
MFFIKDLSLNITLHPSFFGPRMKQYLKTKYLEEVEGSCTGKFGYILCVLDYDNIDIQRGRILPTDGSAEFNVKYRAVVFKPFKGEVVDGTVVSCSQHGFEVQVGPMKVFVTKHLMPQDLTFNAGSNPPSYQSSEDVITIKSRIRVKIEGCISQVSSIHAIGSIKEDYLGAI [L30Y] | -0.203 | -0.223
MFFIKDLSLNITLHPSFFGPRMKQYLKTKLCEEVEGSCTGKFGYILCVLDYDNIDIQRGRILPTDGSAEFNVKYRAVVFKPFKGEVVDGTVVSCSQHGFEVQVGPMKVFVTKHLMPQDLTFNAGSNPPSYQSSEDVITIKSRIRVKIEGCISQVSSIHAIGSIKEDYLGAI [L31C] | -0.329 | -0.185
MFFIKDLSLNITLHPSFFGPRMKQYLKTKLFEEVEGSCTGKFGYILCVLDYDNIDIQRGRILPTDGSAEFNVKYRAVVFKPFKGEVVDGTVVSCSQHGFEVQVGPMKVFVTKHLMPQDLTFNAGSNPPSYQSSEDVITIKSRIRVKIEGCISQVSSIHAIGSIKEDYLGAI [L31F] | 0.0178 | 0.0593
MFFIKDLSLNITLHPSFFGPRMKQYLKTKLIEEVEGSCTGKFGYILCVLDYDNIDIQRGRILPTDGSAEFNVKYRAVVFKPFKGEVVDGTVVSCSQHGFEVQVGPMKVFVTKHLMPQDLTFNAGSNPPSYQSSEDVITIKSRIRVKIEGCISQVSSIHAIGSIKEDYLGAI [L31I] | -0.0584 | -0.05
MFFIKDLSLNITLHPSFFGPRMKQYLKTKLMEEVEGSCTGKFGYILCVLDYDNIDIQRGRILPTDGSAEFNVKYRAVVFKPFKGEVVDGTVVSCSQHGFEVQVGPMKVFVTKHLMPQDLTFNAGSNPPSYQSSEDVITIKSRIRVKIEGCISQVSSIHAIGSIKEDYLGAI [L31M] | 0.0777 | 0.409
MFFIKDLSLNITLHPSFFGPRMKQYLKTKLQEEVEGSCTGKFGYILCVLDYDNIDIQRGRILPTDGSAEFNVKYRAVVFKPFKGEVVDGTVVSCSQHGFEVQVGPMKVFVTKHLMPQDLTFNAGSNPPSYQSSEDVITIKSRIRVKIEGCISQVSSIHAIGSIKEDYLGAI [L31Q] | -0.704 | -0.355
MFFIKDLSLNITLHPSFFGPRMKQYLKTKLREEVEGSCTGKFGYILCVLDYDNIDIQRGRILPTDGSAEFNVKYRAVVFKPFKGEVVDGTVVSCSQHGFEVQVGPMKVFVTKHLMPQDLTFNAGSNPPSYQSSEDVITIKSRIRVKIEGCISQVSSIHAIGSIKEDYLGAI [L31R] | 0.982 | 0.742
MFFIKDLSLNITLHPSFFGPRMKQYLKTKLSEEVEGSCTGKFGYILCVLDYDNIDIQRGRILPTDGSAEFNVKYRAVVFKPFKGEVVDGTVVSCSQHGFEVQVGPMKVFVTKHLMPQDLTFNAGSNPPSYQSSEDVITIKSRIRVKIEGCISQVSSIHAIGSIKEDYLGAI [L31S] | 0.0828 | 0.234

A few values from the list.
Entry for MFFIKDLSLNITLHPSFFGPRMKQYLKTKLQEEVEGSCTGKFGYILCVLDYDNIDIQRGRILPTDGSAEFNVKYRAVVFKPFKGEVVDGTVVSCSQHGFEVQVGPMKVFVTKHLMPQDLTFNAGSNPPSYQSSEDVITIKSRIRVKIEGCISQVSSIHAIGSIKEDYLGAI [L31Q] under log2 fold change of mutant abundance [1]: -0.704
Entry for MFFIKDLSLNITLHPSFFGPRMKQYLKTKRLEEVEGSCTGKFGYILCVLDYDNIDIQRGRILPTDGSAEFNVKYRAVVFKPFKGEVVDGTVVSCSQHGFEVQVGPMKVFVTKHLMPQDLTFNAGSNPPSYQSSEDVITIKSRIRVKIEGCISQVSSIHAIGSIKEDYLGAI [L30R] under NOISeq theta enrichment statistic [2]: -0.137
